# Test results reported in PubChem BioAssay AID1296 (Columbia University Molecular Screening Center, 2008).
# Screen size: about 130,000 compounds; about 1,000 (0.77%) were called active. This list was built around the results that the source calls inconclusive (neither active nor inactive); the mix of calls is not that of the screen.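 How the source made its calls: active means activation at 2 µM above a set limit, confirmed on inspection of the cell images; inconclusive means above the set limit but not confirmed on image inspection; inactive means the rest.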
# Assay: activators of insulin promoter-driven GFP, primary screen, imaging, TRM-6 cells, eGFP reporter, cell count (AID 1296);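 further: share of cells whose green reporter signal exceeds an intensity cutoff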
# Conditions: at 2 µM, active compounds read high, plate-scaled: unstimulated 0, stimulated control 100
# In short: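 System – human fetal islet-derived TRM-6 cells with tamoxifen-inducible insulin promoter–eGFP reporter · Amount – 1,000 cells per well · Schedule – overnight tamoxifen, then two-day compound incubation at 37 °C · Detection – high-content imaging of fixed cells with Hoechst nuclear stain · Read-out – percent cells above green-intensity threshold, converted to percent activation versus plate controls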
row,Compound,activation
1,CC(C)N1CCc2c(sc(NC(=O)c3cc4cc([N+](=O)[O-])ccc4s3)c2C(N)=O)C1,inconclusive: 368%
2,COCCNC(=O)C(c1ccc(C)o1)N(Cc1ccc(F)cc1)C(=O)Cn1nnc2ccccc21 (stereo not drawn),inconclusive: 77.8%
3,Cc1cc(C(=O)N2CC(C)CC(C)C2)n(-c2ccccc2)n1 (stereo not drawn),inconclusive: 162%
4,CCOC(=O)c1sc2nc(C)c3c(c2c1N)CC(C)(C)OC3,inactive: -8.57%
5,Clc1ccc(OCc2cc(-c3ccccc3)no2)cc1Cl,inconclusive: 159%
6,Cc1cccc(CSCCNC(=O)c2ccc(CN3CCOCC3)cc2)c1,inactive: -71.4%
7,c1ccc(C2=Nc3cccnc3C(c3ccccc3)=NN2)cc1,inactive: 5.88%
8,CCN(CC)c1ccc2cc(-c3nc(-c4ccc(OC)cc4)cs3)c(=O)oc2c1,active: 223% [fluoresces]
9,COc1ccc(NC(=O)CCCc2c[nH]c3ccccc23)cc1OC,inconclusive: 380%
10,O=S(=O)(Cc1ccccc1)N1CCN(c2ccccc2)CC1,inconclusive: 78.4%
11,Cc1onc(-c2ccccc2)c1C(=O)N1CCCN(C(=O)c2c(-c3ccccc3)noc2C)CC1,inactive: -2.78%
12,O=C(NCCOc1ccccc1)c1ccccc1[N+](=O)[O-],inconclusive: 456%
13,Cc1c(C)n(C(=O)CSc2nc3ccccc3[nH]2)c2ccccc12,inactive: 5.56%
14,CC(C)(Oc1ccc(Br)cc1)C(=O)N1CCc2ccccc21,inactive: -2.78%
15,O=C(O)CC(SCc1ccc(C(=O)O)o1)C(=O)O (stereo not drawn),active: 75.7%
16,COc1cc(C)c(Cl)cc1S(=O)(=O)NCC1CCCO1 (stereo not drawn),inconclusive: 492%
17,CSc1nsc(NC(=O)Cc2ccccc2)n1,active: 103%
18,COc1ccc2c(=O)c(-c3cnn(-c4ccccc4)c3)c(C)oc2c1,inconclusive: 235%
19,CCOC(=O)c1[nH]c(C)c(C(=O)N2CCN(C(=O)OCC)CC2)c1CC,inactive: -9.09%
20,CCC(C)(C)NC(=O)C(c1ccc(C)o1)N(C(=O)c1csnn1)c1cccc(F)c1 (stereo not drawn),inconclusive: 410%
21,Cc1ccc(-c2nc(NC(=O)c3nn(C)cc3[N+](=O)[O-])sc2C)cc1C,inconclusive: 137% [cytotoxic]
22,CCOCCCNC(=O)CSc1ccccc1,inactive: 8.11%
23,Cc1cc(Cl)ccc1N(CC(=O)N=Nc1c(O)[nH]c2ccccc12)S(C)(=O)=O,inconclusive: 84.4%
24,S=c1[nH]nc(CN2CCCC2)n1Cc1ccccc1,inconclusive: 171%

row,Compound,activation
1,S=c1[nH]nc(COc2ccc3ccccc3c2)o1,inactive: 107%
2,CCSc1nc(N2CCOCC2)c2c(c1C#N)CC(C)(C)N(C)C2,inconclusive: 86.2%
3,COc1ccc(S(=O)(=O)Nc2cc(Cl)ccc2OC)cc1,inconclusive: 292%
4,Cc1ccc(C(=O)Nc2ccccc2)cc1S(=O)(=O)Nc1ccc(Cl)cn1,inconclusive: 320%
5,C/C(=N\NC(=O)c1cc(C(C)C)[nH]n1)c1ccco1,inactive: 0%
6,COc1cc2[nH]c(=S)nc(NCc3ccccn3)c2cc1OC,inconclusive: 300%
7,Cc1c(CCO)c(=O)n(C)n1C(=O)c1ccc(Cl)cc1,inconclusive: 153%
8,Cc1cccnc1Nc1nc(-c2ccccn2)cs1,inconclusive: 143% [cytotoxic]
9,Cc1cc(/C=C2\SC(=S)N(Cc3ccco3)C2=O)c(C)n1-c1ccccc1,inconclusive: 223%
10,CCc1nnc(NC(=O)CN2CCN(c3ccc(Cl)cc3)CC2)s1,inactive: 117%
11,CCCCN(C)CC(O)Cn1cc(/C=C/C(=O)c2cccs2)c2ccccc21 (stereo not drawn),inconclusive: 230%
12,COc1ccc([C@@H]2C[C@H]3CN(Cc4ccccc4OC)C(=O)[C@]34CCCN24)cc1C,inconclusive: 293%
13,O=C(CSc1nc2ccc([N+](=O)[O-])cc2[nH]1)c1ccc(Cl)cc1,inactive: -3.7%
14,Cc1ccc(Nc2nc(N)nc(CN3CCC(C)CC3)n2)c(C)c1,inconclusive: 680%
15,CN(C)c1ccnc2sc3c(=O)n(-c4ccccc4)cnc3c12,inconclusive: 683%
16,CN(C)S(=O)(=O)c1ccc(Oc2ccccc2)cc1,active: 475%
17,CCc1nc(SCC(=O)Nc2nnc(CC)s2)c2c(C)c(C)sc2n1,active: 254%
18,COc1ccc(CCNC(=O)/C(C#N)=C/c2cccc(OCc3ccccc3)c2)cc1OC,inactive: -5.26%
19,COc1cc(C(=O)N/N=C/c2sccc2C)cc(OC)c1OC,inconclusive: 233%
20,O=C(Nc1ccc(Br)cc1)c1cnccn1,inactive: -3.23%
21,CCOC(=O)C1=C(C)NC(C)=C(C(=O)OCC)C1C(=O)OCC(=O)NC(C)C,inactive: 5.41%
22,CC(=O)N1C(=S)NC(=O)/C1=C1/C(=O)N(CC(=O)Nc2cccc(C)c2)c2ccccc21,active: 108%
23,CCc1nnc(NC(=O)c2nc3nc(C)cc(C)n3n2)s1,inactive: -5.46%
24,CC(Nc1cc(=O)n(C)c(=O)n1C)c1ccccc1 (stereo not drawn),inactive: 0%

# Some values from the list.
# For activation, CC(=O)N1C(=S)NC(=O)/C1=C1/C(=O)N(CC(=O)Nc2cccc(C)c2)c2ccccc21 reads active: 108%
# For activation, Cc1cccnc1Nc1nc(-c2ccccn2)cs1 reads inconclusive: 143% [cytotoxic]
# For activation, COc1cc2[nH]c(=S)nc(NCc3ccccn3)c2cc1OC reads inconclusive: 300%
# For activation, Cc1ccc(C(=O)Nc2ccccc2)cc1S(=O)(=O)Nc1ccc(Cl)cn1 reads inconclusive: 320%
# For activation, COc1ccc(S(=O)(=O)Nc2cc(Cl)ccc2OC)cc1 reads inconclusive: 292%

# Compounds listed so far with a cyano group:
row,Compound,activation
2,CCSc1nc(N2CCOCC2)c2c(c1C#N)CC(C)(C)N(C)C2,inconclusive: 86.2%
18,COc1ccc(CCNC(=O)/C(C#N)=C/c2cccc(OCc3ccccc3)c2)cc1OC,inactive: -5.26%

# Continued:

row,Compound,activation
1,CSc1nsc(/C=C/Nc2cccc(Cl)c2)c1C#N,inconclusive: 168%
2,CN(C)c1ccc(/C=C2\NC(=S)N(Cc3ccccc3)C2=O)cc1,active: 170% [may fluoresce]
3,Cc1ccc(S(=O)(=O)CCSc2nc(C)cc(C(F)(F)F)c2C#N)cc1,inactive: 106%
4,CCn1c(-c2ccccc2)c(C(=O)CCl)c2ccccc21,inconclusive: 614% [cytotoxic]
5,C=C(C)c1cccc(C(C)(C)NC(=O)N(C)C2CCN(C)CC2)c1,active: 260%
6,Cc1ccn2c(C(=O)N/N=C/c3ccc(CNC(=O)C(=O)Nc4ccc(C)c(C)c4)o3)c(C)nc2c1,inactive: 3.23%
7,Nc1nncn1C(=O)c1c(Cl)cccc1Cl,active: 444%
8,Cc1nn(-c2ccc(C(=O)O)cc2)c(C)c1Oc1ccccc1O,inactive: 8.11%
9,N#CC1=C(N)Nc2ncnn2C1c1ccc(F)cc1 (stereo not drawn),inconclusive: 223%
10,COc1ccc(S(=O)(=O)NCc2ccccn2)cc1Cl,inconclusive: 492%
11,CC(=O)N1CCc2c(sc(NC(=O)c3ccc([N+](=O)[O-])o3)c2C#N)C1,inconclusive: 274% [cytotoxic]
12,Cn1c(CCc2ccccc2)nnc1SCC(=O)N1CCOCC1,inactive: 322%
13,CN(C(=S)NC(=O)c1ccccc1Br)C1CCCCC1,active: 223%
14,CCCc1nc2c(o1)CC(CC(C)SCC)CC2=O (stereo not drawn),inconclusive: 274%
15,O=C(O)CCCNC(=O)c1cccc(C(=O)NCCCC(=O)O)n1,inactive: 0%
16,O=C(COC(=O)c1ccccc1-c1nc2ccccc2s1)Nc1ccccc1C(F)(F)F,inactive: 2.94%
17,CCN(CCCNC(=O)C1CCC(=O)N1Cc1ccccc1Cl)c1cccc(C)c1 (stereo not drawn),active: 91.7%
18,O=C(COc1ccccc1Cl)N1CCCC1,inconclusive: 91.8%
19,O=C(CCc1ccc(S(=O)(=O)NCCc2ccccc2)cc1)NCc1ccco1,inconclusive: 425%
20,Cc1ccc(NC(=O)CSCC#N)cc1,active: 82.8%
21,COc1ccc2c(c1)c(N=O)c(O)n2C,inactive: 8.57%
22,CC(=O)Nc1ccc2nc(-c3ccccc3)cn2c1,inconclusive: 371%
23,CCN1C(=O)/C(=C/c2ccc(N3CCCC3)cc2)NC1=S,inconclusive: 252%
24,Cc1ccc(/C(O)=C2/C(=O)C(=O)N(CCN3CCOCC3)C2c2ccccn2)cc1 (stereo not drawn),active: 850%

row,Compound,activation
1,O=C(C[n+]1cccc(CNC(=O)c2ccc(OC(F)F)cc2)c1)c1ccccc1,active: 341%
2,CCCC1CC(C)(c2csc(Nc3ccc(OCC)cc3)n2)OC1=O (stereo not drawn),inconclusive: 400%
3,Cc1ccc(C(=O)C[n+]2cccc3cc(C)ccc32)cc1,inconclusive: 525%
4,COc1cc(C(=O)N/N=C/c2cc([N+](=O)[O-])cs2)cc(OC)c1OC,inconclusive: 375% [cytotoxic]
5,Nc1c(-c2cccs2)cnn1-c1nc(-c2ccc(Cl)cc2Cl)cs1,inconclusive: 163%
6,CCCOC(=O)C1C2C=CC3(CN(c4ccc(Cl)c(F)c4)C(=O)C13)O2 (stereo not drawn),inconclusive: 210%
7,CCOc1ccc2nc(SCC(=O)NC(=O)NCc3ccco3)[nH]c2c1,inconclusive: 105%
8,COc1ccc(NC(=O)N2CCCC(C(=O)NC(C)C)C2)cc1 (stereo not drawn),inconclusive: 440%
9,NC(=O)N/N=C/c1cc(Br)ccc1OC(=O)c1ccccc1,inactive: 9.8%
10,NC(=S)N/N=C/c1ccc(Br)o1,inconclusive: 227%
11,O=C(CSc1nc2nn(-c3ccccc3)c(=O)c-2c2n1CCCCC2)NCCc1ccccc1,inconclusive: 192%
12,CC(=O)Nc1ccc2nc(-c3ccncc3)[nH]c2c1,inconclusive: 492%
13,Cc1ccccc1C(=O)N/N=C/c1ccc([N+](=O)[O-])s1,inconclusive: 427%
14,COc1cccc(NC(=O)c2oc3ccccc3c2NC(=O)C(C)(C)C)c1,inconclusive: 154%
15,CC1CCN(CCc2nc3cc(NC(=O)NC4CCCCC4)ccc3n2C)CC1,inactive: 7.69%
16,CCOc1cc(/C=C2\SC(=N)N(c3nccs3)C2=O)ccc1OCCN1CCOCC1,inconclusive: 375% [cytotoxic]
17,CNC(=O)c1nnsc1S(=O)c1ccc(Cl)cc1 (stereo not drawn),inconclusive: 154%
18,CCOc1ccccc1OCC(=O)N/N=C(\C)Cc1ccc(OC)cc1,inconclusive: 293% [cytotoxic]
19,O=C1C(Cl)=C(N2CCCCC2)C(=O)N1c1ccccc1,inconclusive: 125%
20,CC1(C)CC(=O)C(N=Nc2ccc(-c3ccccc3)cc2)=C(O)C1,inconclusive: 282%
21,O=C(c1ccccn1)N(CC1CCCO1)C1(C(=O)NC2CCCCC2)CCCCC1 (stereo not drawn),inactive: 7.14%
